From the supplement of paper PMC3334620
In all, about 33,000 sequences were measured (“E-score (-0.5 to 0.5)”: median about -8e-05, highest 2% from about 0.23 on). The list shows a part of the results.

Biological target: T1, Nrg2 (UniProt P38082)
T1 sequence: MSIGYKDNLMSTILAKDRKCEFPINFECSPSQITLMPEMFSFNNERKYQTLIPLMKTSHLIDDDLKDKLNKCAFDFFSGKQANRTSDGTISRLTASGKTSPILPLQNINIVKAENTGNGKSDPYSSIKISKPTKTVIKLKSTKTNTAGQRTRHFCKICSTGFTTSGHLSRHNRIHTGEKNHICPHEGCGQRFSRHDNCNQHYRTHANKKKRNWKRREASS
Experiment: PBM E-score (8-mer binding enrichment) (E-score (-0.5 to 0.5)); higher = stronger / more preferred TF binding
Settings: protein concentration: 100 nM; construct: GST-full length
Method in brief: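 Full-length yeast transcription factors or their DNA-binding domains, GST-tagged and expressed with PURExpress, were applied at about 100-200 nM to universal all-10-mer Agilent arrays. These arrays had been made double-stranded by primer extension on fresh or once-stripped slides. Detection used fluorescent anti-GST, normalisation used masliner, and E-scores for ungapped eight-base words pooled with reverse complements came from the Universal PBM Analysis Suite.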

Sequence | PBM E-score
CATGTACA | -0.159
CCGTTTAC | 0.00913
AACTGCGC | -0.08
AGGGGAAA | -0.046
AATTGGCG | 0.0629
CCGTGACG | 0.0344
CAACGTCC | -0.218
AAGATTTG | -0.00761
GATGATGA | 0.0445
GTAGCCAC | -0.203
ATTACTCC | -0.0106
AAGATTGT | -0.0108
CAACTAGA | -0.0228
AAGATATC | 0.149
GAGTAGGA | 0.00162
CTATTTGC | -0.0144
CCTCGTTA | 0.0397
CGCACTTC | -0.0401
AAATTACA | 0.00595
CTTATATA | 0.208
GTCAAATA | 0.0158
GCGGCTTA | -0.132
GTGGAAAC | 0.00551
ACAGGTCT | -0.288
CATAAACA | -0.00191

Sequence | PBM E-score
CTAGGTTA | 0.119
GAGTACAC | -0.00538
CGTTTAGC | -0.00779
ATTAGCGG | 0.00339
AAATTGAG | 0.124
ATAACCGC | 0.0917
ATCAGGCG | 0.0279
AACCCTTG | 0.194
AATGCACA | 0.0926
CATCGGAA | -0.00211
AGCTAATA | 0.0888
CGAATGCC | -0.0725
CCTCATCG | 0.142
GAGGTAGA | -0.063
ATGCCGCG | 0.00671
CTTTAGTC | -0.146
CTTAAACA | 0.0774
CTAGGGGC | -0.129
GCCAGTAC | -0.119
CTAGACTA | -0.0731
GACTGGAC | -0.18
ATCGAGGG | 0.12
ACTACTGG | -0.11
CGCAACCC | 0.143
CTGTCAGC | 0.0361

Sequence | PBM E-score
CCGTAAGC | -0.191
ACAAATCC | 0.0969
AACACGGG | 0.181
GGGTCATA | -0.116
GTGGTCGA | -0.114
AGATCCTA | -0.0612
GGCGGCTA | 0.0414
CCTCGCCA | -0.195
AGACGCAC | -0.11
CCACGTGG | -0.0832
TTCGAGAA | 0.0656
ACCCACGC | -0.00444
CACCTTGA | -0.141
CCACGTGC | -0.0896
GACTGGCC | -0.164
AAGACTAC | 0.105
GCATCAAA | 0.0814
CCCACTAC | 0.0486
ATAGACTA | -0.0062
ATCCAAGC | -0.00379
AAGCAAGT | 0.0393
CATCTACA | 0.0424
CCGAGTCG | -0.154
AACCTGCG | 0.0269
TAACGGCA | 0.0414

Sequence | PBM E-score
ACACTCAC | 0.145
ACTCATGC | -0.0999
ACTCTTAA | -0.115
CGCTTTCC | -0.1
CAGCCAAA | 0.0861
AAGTGGTG | -0.0492
AGCTGTCA | 0.13
AACGGCTC | -0.0179
CTCCACTC | -0.238
CGCCTTAG | -0.0566
CACAGGGA | 0.139
CGTTCGGA | -0.0218
CAGAAACC | 0.125
AACGCCCA | 0.0709
GGCAGTCA | -0.0255
CAAGGCTG | -0.0192
CATTCACC | 0.161
CGTGCGTC | 0.0766
CAGGAAAG | -0.123
CCTAAAAG | -0.373
GGTAACTA | 0.146
CGGCCGGC | -0.0678
AACGTACA | 0.036
ACTGTGGC | -0.169
ACGCGTGA | 0.195

Sequence | PBM E-score
CGTTGATC | -0.0004
GAGGAGCC | -0.2
CCTAGCCC | -0.116
AAAGATGT | 0.0245
CACAGGCA | 0.0159
AACGGAGA | -0.036
ATATCGCG | 0.331
GCTAGTAA | 0.139
ACTCCAGG | -0.129
GAGTTCGC | 0.0858
AGTGTATA | -0.00713
CAATCTAA | -0.0579
AGGTTCAC | 0.016
AGCGAGCT | 0.196
CGCGTGAG | 0.122
AAACTACT | 0.144
GACCGGTA | -0.284
AATTCCGC | 0.0765
AAAAGCAT | 0.0445
GTGCGGAA | 0.0665
GATTCAAC | 0.00265
ATGACCAC | -0.122
GGACCATA | -0.023
CAGTCTGC | -0.113
GGGGCTTA | -0.222

Sequence | PBM E-score
AGGGACAC | 0.204
ACTTCACG | -0.123
ACTTTAGA | -0.00459
AGCGACGC | -0.0635
AAACACCG | 0.0159
ACGATAGC | -0.0673
ACGCATTC | 0.0337
CACAGATA | 0.0158
CTTAATTC | 0.103
GGATCACC | -0.046
GACAGCGA | -0.131
GGAATCCC | -0.0604
ACCTATTG | -0.0421
GTACGACA | 0.061
ATCACCCA | -0.0261
GGTTATTA | 0.132
AGCACCCG | -0.0712
GCGGCTCC | -0.275
CGCTTAGC | -0.155
ACGAATAT | 0.159
CCGTGGCA | -0.1
AGGTAAAC | 0.08
AGCTCTAT | -0.073
GAATCCAC | -0.0338
CATATCCG | 0.0953

Sequence | PBM E-score
CGTGCAAG | 0.0549
CAACGTGC | -0.0969
AGCACCAT | -0.134
CTCCGTCC | -0.245
ATATAGCG | -0.0724
GAGCGGCA | -0.0956
CAAGCCCC | -0.0421
ACTAGCTG | 0.0379
AACCCAAA | 0.00356
ATATAAAT | 0.252
CAGTGACA | -0.0545
AGTTAGCG | 0.162
CCCGCGAC | -0.14
CACTTAGA | 0.0291
CGTTACAA | 0.0719
GTAACAGA | 0.154
GGAACGCA | 0.0954
ATAACGAG | 0.0539
GGACTCAA | 0.139
AGGCCCGA | -0.193
ATTTATCA | 0.225
TGATTGAA | 0.147

Looked up above:
In PBM E-score, GTAGCCAC is listed with -0.203
In PBM E-score, GGCGGCTA is listed with 0.0414
In PBM E-score, CAAGCCCC is listed with -0.0421
In PBM E-score, CATCGGAA is listed with -0.00211
In PBM E-score, ACAAATCC is listed with 0.0969
In PBM E-score, AAGATATC is listed with 0.149
In PBM E-score, GAGTTCGC is listed with 0.0858
